Some of these results come from one statement about several compounds together.
Columns and labels:
[1] = test system: E. coli strain V66 (recBCD+); assay: Inhibition of growth of E. coli strain V66 (optical density, MIC); assay type: cell-based; conditions: FIG. 16; all treated cultures; untreated control 1.4×10^9
RecF pathway = assay: Hfr recombination by the RecF pathway (strain JC9387); conditions: RecE and RecF pathways together

## CCn1cc(C(=O)O)c(=O)c2cc(F)c(N3CCN(C(=S)Nc4cccc(C(F)(F)F)c4)CC3)cc21 [Compound 50]
[1]
  viable cells at the end of the incubation period: < 200 colony forming units per ml

## CCn1cc(C(=O)O)c(=O)c2cnc(N3CCNCC3)nc21 [Compound 2, pipemidic acid, reference compound]
RecF pathway
  factor of inhibition of recombination by the RecE or RecF pathways: 6-13

Source: US20150126519A1, “ANTIBIOTIC COMPOUNDS AND COMPOSITIONS, AND METHODS FOR IDENTIFICATION THEREOF” (Fred Hutchinson Cancer Research Center, priority 2012, published 2015)
